Values of other authors in patent publication US11654132B2, “Methods for treating COVID-19” (priority 2020, dated 2023).
For at least one compound, name, drawing or mass did not settle the structure.

Tested on: COVID-19
Settings: cited from earlier work

## CCC(CC)COC(=O)[C@H](C)N[P@](=O)(OC[C@H]1O[C@@](C#N)(c2ccc3c(N)ncnn23)[C@H](O)[C@@H]1O)Oc1ccccc1 [remdesivir]
Given early in the course
  course of the illness: mitigate the course of the illness when given early in the course
human, in vivo
  benefit in subsequent data: failed to show a benefit
